Test results from paper doi:10.1101/2020.11.21.392902.
These are yes or no findings as the source states them, for the method shown. In cells and extracts the contact can be indirect. For some assays here: A result given as binding can be weak or reduced; the word gives no strength.

Chains of the proteins cited; added tags and fusions are not shown. Lines headed by an entry give the natural chain unless they say otherwise; changes in a name come on top.
UniProt Q8VIM5: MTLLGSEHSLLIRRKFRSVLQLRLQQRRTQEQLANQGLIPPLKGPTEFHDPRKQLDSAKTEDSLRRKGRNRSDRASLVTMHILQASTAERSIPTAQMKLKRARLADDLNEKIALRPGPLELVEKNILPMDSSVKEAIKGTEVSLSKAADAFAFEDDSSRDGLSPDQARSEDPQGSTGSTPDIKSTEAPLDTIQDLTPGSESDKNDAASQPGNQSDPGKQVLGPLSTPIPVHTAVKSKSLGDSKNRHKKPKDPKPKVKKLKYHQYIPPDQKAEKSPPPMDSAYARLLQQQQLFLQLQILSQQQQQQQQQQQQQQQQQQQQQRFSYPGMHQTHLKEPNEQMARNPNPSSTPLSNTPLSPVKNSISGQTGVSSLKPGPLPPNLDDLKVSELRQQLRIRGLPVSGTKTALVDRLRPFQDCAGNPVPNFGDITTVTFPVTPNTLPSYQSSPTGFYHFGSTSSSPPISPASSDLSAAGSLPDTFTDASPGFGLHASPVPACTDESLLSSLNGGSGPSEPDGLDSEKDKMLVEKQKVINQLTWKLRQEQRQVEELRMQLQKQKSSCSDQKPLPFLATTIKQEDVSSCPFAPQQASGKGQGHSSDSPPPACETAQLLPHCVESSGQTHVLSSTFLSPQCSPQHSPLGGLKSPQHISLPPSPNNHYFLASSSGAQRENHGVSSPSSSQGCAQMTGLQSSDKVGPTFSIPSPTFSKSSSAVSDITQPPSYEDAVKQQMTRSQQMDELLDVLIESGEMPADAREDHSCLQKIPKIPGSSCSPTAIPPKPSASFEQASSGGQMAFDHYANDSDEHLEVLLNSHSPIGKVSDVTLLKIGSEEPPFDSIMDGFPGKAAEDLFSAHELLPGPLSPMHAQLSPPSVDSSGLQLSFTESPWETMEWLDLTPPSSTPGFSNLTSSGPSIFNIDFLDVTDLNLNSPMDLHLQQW
UniProt P40763: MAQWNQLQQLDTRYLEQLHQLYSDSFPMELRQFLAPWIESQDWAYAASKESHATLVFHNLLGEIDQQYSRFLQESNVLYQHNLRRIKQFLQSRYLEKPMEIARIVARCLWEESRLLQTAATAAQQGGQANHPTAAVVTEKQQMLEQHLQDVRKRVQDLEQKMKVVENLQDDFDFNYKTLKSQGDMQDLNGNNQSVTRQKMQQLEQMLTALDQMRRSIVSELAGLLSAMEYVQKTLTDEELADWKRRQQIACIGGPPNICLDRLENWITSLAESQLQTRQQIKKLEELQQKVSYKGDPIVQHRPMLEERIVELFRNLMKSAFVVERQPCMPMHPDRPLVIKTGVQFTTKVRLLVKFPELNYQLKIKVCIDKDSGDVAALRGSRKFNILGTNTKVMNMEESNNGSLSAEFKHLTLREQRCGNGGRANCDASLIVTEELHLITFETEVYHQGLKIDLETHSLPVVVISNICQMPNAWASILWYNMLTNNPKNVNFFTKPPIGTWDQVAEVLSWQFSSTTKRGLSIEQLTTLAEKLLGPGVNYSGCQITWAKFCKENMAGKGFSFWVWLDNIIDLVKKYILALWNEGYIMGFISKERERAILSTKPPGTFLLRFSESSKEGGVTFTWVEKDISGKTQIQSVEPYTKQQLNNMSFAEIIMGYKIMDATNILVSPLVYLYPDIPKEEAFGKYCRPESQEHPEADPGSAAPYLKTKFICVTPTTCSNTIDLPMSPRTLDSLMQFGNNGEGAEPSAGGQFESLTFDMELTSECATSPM

Columns and labels:
[1] = molecular target: Flag-tagged Myocardin deletion mutant of the basic domain [Myocardin (1-807)] (UniProt Q8VIM5); experiment: co-IP
[2] = molecular target: Flag-tagged Myocardin mutant of the Q-rich domain [Myocardin (1-807)] (UniProt Q8VIM5); experiment: co-IP

Substance: Myc-STAT3 (full-length STAT3 with Myc tag, Myc-pCDNA3.1-STAT3) (from UniProt P40763 1-770)
- binding [1]: no binding
- binding [2]: binds
